Results deposited as PubChem BioAssay AID504772 (Drosophila RNAi Screening Center, 2011)

- Test: 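Finding modifiers of Wnt signalling started by LRP6 in fly cells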 (primary screen)
- System: Drosophila clone 8 cells
- Reagents: long dsRNA against Drosophila genes
- Timing: four days
- Challenge: pathway switched on by co-transfected constitutively active LRP6 lacking its extracellular part (DeltaNLRP6)
- Measured: 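Light from a beta-catenin-dependent firefly luciferase reporter (dTF12) relative to co-transfected Renilla luciferase, given as up or down, after four days with Wnt signalling driven by truncated active LRP6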
- Hit rule: 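a gene is picked when its silencing raises Wnt reporter signal by twofold or more and a human counterpart of the fly gene is known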
- Calls: active = picked as conserved enhancer hit; inactive = not picked
The reagents shown are a selection, not the whole library. 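Only primary screen hits listed, as up or down without numbers; fold changes behind calls not deposited; all reporter-lowering hits marked not picked.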 Unmarked entries are inactive. The numbers tell different reagents against one gene apart. A plus sign joins genes that one reagent is predicted to hit. Reagent sequences are not shown. Not given: the amount of reagent, the dose of the treatment.

Rga (Regena)
- reporter change after knockdown: reporter signal went up

orb (oo18 RNA-binding protein)
- reporter change after knockdown: reporter signal went down

dlp (dally-like) #1
- reporter change after knockdown: reporter signal went up

dlp (dally-like) #2
- reporter change after knockdown: reporter signal went up

vig (vasa intronic gene)
- reporter change after knockdown: reporter signal went up

Hsp67Ba (Heat shock gene 67Ba)
- reporter change after knockdown: reporter signal went up

Tbp (TATA binding protein)
- reporter change after knockdown: reporter signal went down

wts (warts)
- reporter change after knockdown: reporter signal went down

trx (trithorax)
- reporter change after knockdown: reporter signal went up

p-cup (presidents-cup)
- reporter change after knockdown: reporter signal went down

CG18649
- reporter change after knockdown: reporter signal went up

CG10139
- reporter change after knockdown: reporter signal went up

Hk (Hyperkinetic)
- reporter change after knockdown: reporter signal went down

trio
- reporter change after knockdown: reporter signal went down

CG33543
- reporter change after knockdown: reporter signal went up

RnpS1 (RNA-binding protein S1)
- reporter change after knockdown: reporter signal went up

CoRest
- reporter change after knockdown: reporter signal went down

Bicra
- reporter change after knockdown: reporter signal went up

pnt (pointed)
- reporter change after knockdown: reporter signal went down

Pp2C1 (Protein phosphatase 2C)
- reporter change after knockdown: reporter signal went up

CG16903
- reporter change after knockdown: reporter signal went up

velo (veloren)
- reporter change after knockdown: reporter signal went up

CG31145
- reporter change after knockdown: reporter signal went down

z (zeste)
- reporter change after knockdown: reporter signal went up

Tip60 (Tat interactive protein 60kDa)
- reporter change after knockdown: reporter signal went up

pdm2 (POU domain protein 2)
- reporter change after knockdown: reporter signal went down

Rcd5 (Reduction in Cnn dots 5)
- reporter change after knockdown: reporter signal went up (active)

Pp1-13C (Protein phosphatase 1 at 13C)
- reporter change after knockdown: reporter signal went up (active)

akirin
- reporter change after knockdown: reporter signal went down

ACC (Acetyl-CoA carboxylase)
- reporter change after knockdown: reporter signal went down

pan (pangolin)
- reporter change after knockdown: reporter signal went down

CG32365
- reporter change after knockdown: reporter signal went down

Kap-alpha3 (karyopherin alpha3)
- reporter change after knockdown: reporter signal went up

CG44838
- reporter change after knockdown: reporter signal went down

Pp2B-14D (Protein phosphatase 2B at 14D)
- reporter change after knockdown: reporter signal went down

nsl1 (non-specific lethal 1)
- reporter change after knockdown: reporter signal went up

eIF2alpha (eukaryotic translation initiation factor 2 subunit alpha)
- reporter change after knockdown: reporter signal went up

CG31917 + Tfb5 #1
- reporter change after knockdown: reporter signal went up

CG31917 + Tfb5 #2
- reporter change after knockdown: reporter signal went up

Prp3 (Precursor RNA processing 3)
- reporter change after knockdown: reporter signal went up

Tlk (Tousled-like kinase)
- reporter change after knockdown: reporter signal went down

snRNP-U1-C (small ribonucleoprotein particle U1 subunit C)
- reporter change after knockdown: reporter signal went up

hyx (hyrax)
- reporter change after knockdown: reporter signal went down

Smr (Smrter)
- reporter change after knockdown: reporter signal went down

U2af38 (U2 small nuclear riboprotein auxiliary factor 38)
- reporter change after knockdown: reporter signal went up

PNUTS (Phosphatase 1 nuclear targeting subunit)
- reporter change after knockdown: reporter signal went down

Nup205 (Nucleoporin 205kD)
- reporter change after knockdown: reporter signal went up

Called active, among the entries above:
Rcd5 (Reduction in Cnn dots 5)
- reporter change after knockdown: reporter signal went up (active)

Pp1-13C (Protein phosphatase 1 at 13C)
- reporter change after knockdown: reporter signal went up (active)
